{"sequences": {"note": "Sequences of proteins named here, by UniProt entry; tags and fusion partners are left off.", "UniProt O18381, whole entry R37P": "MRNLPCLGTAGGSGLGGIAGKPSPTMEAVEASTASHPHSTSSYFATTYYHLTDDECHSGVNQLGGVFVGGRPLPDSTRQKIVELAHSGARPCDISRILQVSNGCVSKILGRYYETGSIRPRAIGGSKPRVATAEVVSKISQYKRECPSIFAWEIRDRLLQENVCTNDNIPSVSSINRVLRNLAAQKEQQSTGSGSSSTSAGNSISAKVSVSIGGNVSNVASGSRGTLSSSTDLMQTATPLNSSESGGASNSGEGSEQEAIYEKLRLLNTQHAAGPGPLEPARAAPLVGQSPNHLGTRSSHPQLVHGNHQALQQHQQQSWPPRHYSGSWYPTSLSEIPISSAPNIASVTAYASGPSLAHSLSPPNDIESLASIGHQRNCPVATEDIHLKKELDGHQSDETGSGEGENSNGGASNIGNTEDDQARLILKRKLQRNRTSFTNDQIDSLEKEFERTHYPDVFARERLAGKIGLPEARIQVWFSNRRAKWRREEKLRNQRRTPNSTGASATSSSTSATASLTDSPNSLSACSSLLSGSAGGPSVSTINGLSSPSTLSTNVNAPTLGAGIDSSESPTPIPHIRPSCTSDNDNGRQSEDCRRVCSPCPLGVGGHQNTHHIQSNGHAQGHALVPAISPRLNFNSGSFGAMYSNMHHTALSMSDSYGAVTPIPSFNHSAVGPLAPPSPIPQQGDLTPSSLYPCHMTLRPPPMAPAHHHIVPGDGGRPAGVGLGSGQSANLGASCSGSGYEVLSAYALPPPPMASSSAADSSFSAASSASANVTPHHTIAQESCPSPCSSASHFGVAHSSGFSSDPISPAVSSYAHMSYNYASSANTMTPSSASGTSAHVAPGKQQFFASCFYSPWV"}, "source": "paper PMC4286722", "biological_target": "Eyeless (Ey) WT (UniProt O18381)", "assay": "EMSA", "details": "Ey alone, very weak binding; Embryo extract in lysis buffer (500 mM NaCl, 1% Triton X-100, 50 mM Tris pH 6.0, protease inhibitors, 10 mM PMSF), 3 ul used; 4% native PAGE in 0.5x TBE; protein in a lysate after overexpression; label: 32P", "note": "The exact form of at least one protein or probe is not confirmed. Where cells or extracts were used, other partners may take part. A weaker result is weaker than the reference pair of the same experiment."}
{"sequence": "GATACAGTTTTCCAGCTCATTTGCTTGTAATTGGGCACCAA (double strand) [Ey2 (WT), Ato 3' enhancer (3.6BB)]", "values": [{"measurement": "binding result", "value": "binds more weakly"}]}
